This is an account of results in US8981047B2 (Indiana University Research and Technology Corporation, priority 2007, dated 2015).

The nature of series [1]: solid-phase peptide synthesis.
Series [2] in a line: solid-phase peptide synthesis. The settings on record: whole synthesis.
Series [3] in a line: Fmoc solid-phase peptide synthesis; Rink MBHA amide resin; HBTU (FastBoc single coupling); DIC/HOBT (Fmoc); BEPBT/DEPBT for PLA. The settings on record: whole synthesis, scale 0.1 mmole.
Where [4] appears, read: whole synthesis, analytical HPLC (Zorbax C8, 214 nm), MALDI or ESI MS, scale of the general procedure 0.2 mmole (Boc), 0.1 mmole (Fmoc).

In the case of Glucagon Cys^17 Mal-PEG-5K, in series [1] (conjugation step, 214 nm), the “final HPLC purity” value is reported as “approx. 90%”.
As for Glucagon Cys^24 Mal-PEG-20K, the “final HPLC purity” value in series [1] (conjugation step, analytical HPLC (Zorbax C8, 214 nm), MALDI or ESI MS) is reported as “˜90%”.
Turning to Glucagon Cys^29 Mal-PEG-5K, the “final HPLC purity” value in series [1] (conjugation step, 214 nm) was “greater than 95%”.
Regarding “H2N-Phe-Thr-Ser-homoCys(SO3H)-Tyr-Ser-Lys-Tyr-Leu-Asp-Ser-Arg-Arg-Ala-Gln-Asp-Phe-Val-Gln-Trp-Leu-Met-Asn-Thr-NH2”, the isolated mass in series [2] (scale 0.05 mmole) was 15˜20 mg. In addition, the “final HPLC purity” value in series [1] (setting [4]) is listed as 95%. The isolated yield in series [1] (whole synthesis, totally, scale of the general procedure 0.2 mmole (Boc), 0.1 mmole (Fmoc)) was 10˜15%.
On to “HO-PLA-Thr-Ser-Glu-Tyr-Ser-Lys-Tyr-Leu-Asp-Ser-Arg-Arg-Ala-Gln-Asp-Phe-Val-Gln-Trp-Leu-Met-Asn-Thr-NH2”, for which the isolated mass in series [2] (scale 0.1 mmole) was 25˜40 mg. For the same substance, in series [2] (totally, scale of the general procedure 0.2 mmole (Boc), 0.1 mmole (Fmoc)), the isolated yield is listed as 10˜15%. Moreover, in series [1] (setting [4]), the “final HPLC purity” value came out at 95%. Besides, the crude mass in series [3] was 200˜250 mg.
